Like-named read-outs stand apart in the source and are kept apart here. At least one compound was matched to its structure with a doubt left.
Key:
[1] = tested on: cytokines/chemokines (IL-6, KC, MCP-1, RANTES); assay: Cytokine/chemokine levels in nasal turbinates, trachea, lungs and sera (cytometric bead array); assay type: in vivo, C57BL/6 mice
[2] = tested on: A/Udorn/307/72 (H3N2) influenza virus; assay type: in vivo, C57BL/6 mice

Question: For `CCCCCCCCCCCCCCCC(=O)OCC(CSC[C@H](N)C(=O)N[C@@H](CO)C(=O)N[C@@H](CO)C(=O)NCCOCCOCCOCCOCCOCCOCCOCCOCCOCCOCCOCCOCCC(=O)NCC(N)=O)OC(=O)CCCCCCCCCCCCCCC` (stereo partly drawn) [INNA-003, Pam2Cys-Ser-Ser-PEG, reference compound], which “fold lower IL-6 in nasal turbinates, 3 doses compared to single dose” value ([1]; 0.5 nmoles) is on record?
Answer: approximately 25 fold

Question: And the “cytokine/chemokine levels in nasal turbinates, lungs and sera, 3 repeat doses compared to single dose” value ([1]; 0.5 or 0.05 nmoles)?
Answer: marked decrease in cytokine/chemokine levels

Question: What about the “level of KC in lungs” value ([1]; 3-dose regime (both 0.5 and 0.05 nmole doses)) of the same molecule?
Answer: 7.5 pg/mL

Question: And the “level of IL-6 in nasal turbinates” value ([1]; 3 doses (0.5 nmoles), 24 hours after last dose)?
Answer: ~22 pg/mL

Question: And the “fold increase of KC in nasal turbinates versus saline” value ([1]; mouse, in vivo)?
Answer: 2 fold

Question: And the “fold reduction of KC levels in the lung compared to INNA-006 treatment” value ([1]; mouse, in vivo)?
Answer: 2 fold

Question: And the “level of KC in nasal turbinates” value ([1]; mouse, in vivo)?
Answer: ~76 pg/mL

Question: What about the “KC in the lungs compared to saline control” value ([1]; single dose) of the same molecule?
Answer: no significance

Question: And the “fold increase in IL-6 levels in nasal turbinates versus saline” value ([1]; single dose (0.5 nmoles))?
Answer: approximately 125 fold

Question: And the “level of IL-6 in nasal turbinates” value ([1]; single dose (0.5 nmoles), 24 hours after dose)?
Answer: 530 pg/mL

Question: And the “cytokine/chemokine profile in nasal turbinates compared to saline (IL-6, KC & MCP-1)” value ([1]; single or 3 repeat doses, 0.5 or 0.05 nmoles, dose-dependent)?
Answer: increase in proinflammatory cytokines and chemokines

Question: What about the “progression of influenza virus to the lungs (lung viral titre)” value (“progression of influenza virus” below) ([2]; 0.005 nmoles intranasal 1 day prior to 500 pfu Udorn challenge, n=5, day 5 (Example 4)) of the same molecule?
Answer: partial inhibition

Question: What about the “progression of influenza virus” value ([2]; 0.05 nmoles intranasal 1 day prior to challenge, n=10 (Example 5)) of the same molecule?
Answer: Little or no apparent inhibition

Question: What about the “progression of influenza virus” value ([2]; 0.1 nmoles intranasal 1 day prior to 500 pfu Udorn challenge, n=5, day 5 (Example 4)) of the same molecule?
Answer: partial inhibition

Question: What about the “progression of influenza virus” value ([2]; 0.5 nmoles intranasal 1 day prior to challenge, n=10 (Example 5)) of the same molecule?
Answer: partial inhibition

Question: And the “progression of influenza virus” value ([2]; 5 nmoles intranasal 1 day prior to 500 pfu Udorn challenge, n=5, day 5 (Example 4))?
Answer: partial inhibition

Question: What about the “progression of influenza virus” value ([2]; 3 doses of 0.5 nmoles (days 0, 2, 4), challenge one day after third dose (Example 7)) of the same molecule?
Answer: partial inhibition

Question: How did the “progression of influenza virus” value ([2]; 5 nmoles intranasal 7 days before challenge, n=10 (Example 11)) turn out when `CCCCCCCCCCCCCCCC(=O)OCC(CSC[C@H](N)C(=O)N[C@@H](CO)C(=O)NCCOCCOCCOCCOCCOCCOCCOCCOCCOCCOCCOCCOCCOCCOCCOCCOCCOCCOCCOCCOCCOCCOCCOCCOCCOCCOCCOCCOCCC(=O)NCC(N)=O)OC(=O)CCCCCCCCCCCCCCC` (stereo partly drawn) [INNA-011] was run?
Answer: significantly inhibit
